This test addresses pGBKT7-EtSERPIN1 (yeast two-hybrid bait) (Eimeria tenella). The test is described as follows: two-hybrid; pGBKT7-EtSERPIN1 bait co-transformed with pGADT7 preys into Y2H Gold; growth and colour on DDO/X/A and QDO/X/A plates, 30 °C, 3-5 days.

These are yes or no findings as the source states them, for the method shown.

B1: pGADT7-GgANXA5 (yeast two-hybrid prey) (protein, UniProt P17153 1-321)
chain: MAKYTRGTVTAFSPFDARADAEALRKAMKGMGTDEETILKILTSRNNAQRQEIASAFKTLFGRDLVDDLKSELTGKFETLMVSLMRPARIFDAHALKHAIKGAGTNEKVLTEILASRTPAEVQNIKQVYMQEYEANLEDKITGETSGHFQRLLVVLLQANRDPDGRVDEALVEKDAQVLFRAGELKWGTDEETFITILGTRSVSHLRRVFDKYMTISGFQIEETIDRETSGDLEKLLLAVVKCIRSVPAYFAETLYYSMKGAGTDDDTLIRVMVSRSEIDLLDIRHEFRKNFAKSLYQMIQKDTSGDYRKALLLLCGGDDE
As to B1, the binding result is on record as “no binding”.

The values above are taken from paper PMC12243203.
